{
  "sequences": {"note": "Protein sequences, listed by entry. Tags and fused reporters are not part of them. Residues count along the entry.", "UniProt Q9BUB5, 1-424 isoform 2 T344D": "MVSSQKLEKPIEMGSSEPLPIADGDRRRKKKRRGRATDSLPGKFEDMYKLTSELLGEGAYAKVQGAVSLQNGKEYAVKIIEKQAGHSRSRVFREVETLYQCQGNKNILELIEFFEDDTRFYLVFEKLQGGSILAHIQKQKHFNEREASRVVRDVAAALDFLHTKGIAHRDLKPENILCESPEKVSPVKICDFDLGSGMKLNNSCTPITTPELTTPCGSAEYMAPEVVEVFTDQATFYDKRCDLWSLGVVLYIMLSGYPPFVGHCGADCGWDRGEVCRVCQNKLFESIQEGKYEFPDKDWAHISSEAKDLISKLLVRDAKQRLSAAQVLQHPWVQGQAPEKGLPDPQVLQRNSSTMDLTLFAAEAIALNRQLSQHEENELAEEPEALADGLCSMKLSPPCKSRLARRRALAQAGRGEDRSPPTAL"},
  "source": "patent US20160159816A1",
  "about": "“SUBSTITUTED THIENOPYRIMIDINES AND PHARMACEUTICAL USE THEREOF” (BAYER PHARMA AKTIENGESELLSCHAFT, priority 2013, published 2016)",
  "target": "human full-length MKNK1 (Homo sapiens, UniProt Q9BUB5, T385D)",
  "assay": "MKNK1 kinase high ATP assay (TR-FRET)",
  "conditions": "read-out: MKNK1 IC50; high ATP (2 mM), after preincubation with MKNK1; compounds of the present invention (Table 1a)",
  "experimental": "MKNK1-inhibitory activity at high ATP of compounds of the present invention after their preincubation with MKNK1 was quantified employing the TR-FRET-based MKNK1 high ATP assay as described in the following paragraphs.\nA recombinant fusion protein of Glutathione-S-Transferase (GST, N-terminally) and human full-length MKNK1 (amino acids 1-424 and T344D of accession number BAA 19885.1), expressed in insect cells using baculovirus expression system and purified via glutathione sepharose affinity chromatography, was purchased from Carna Biosciences (product no 02-145) and used as enzyme. As substrate for the kinase reaction the biotinylated peptide biotin-Ahx-IKKRKLTRRKSLKG (C-terminus in amide form) was used, which can be purchased e.g. from the company Biosyntan (Berlin-Buch, Germany). […]\nThe resulting mixture was incubated for 1 h at 22° C. to allow the formation of complex between the phosphorylated biotinylated peptide and the detection reagents. Subsequently the amount of phosphorylated substrate was evaluated by measurement of the resonance energy transfer from the Eu-chelate to the streptavidine-XL. Therefore, the fluorescence emissions at 620 nm and 665 nm after excitation at 350 nm were measured in a TR-FRET reader, e.g. a Rubystar (BMG Labtechnologies, Offenburg, Germany) or a Viewlux (Perkin-Elmer). […]",
  "note": "Structures were worked out from names or drawings and are uncertain.",
  "data": [
    {"smiles": "CC(C)(C)OC(=O)N[C@@H](CCO)C(=O)NCC1CCc2c(sc3ncnc(Nc4ccc5[nH]ncc5c4)c23)C1", "note": "(stereo partly shown)", "values": [
      {"measurement": "IC50", "value": 23.5, "unit": "nM"}
    ]}
  ]
}
